Experimental data as given in patent US6781000B1, “Alpha-ketoamide inhibitors of 20S proteasome” (CV Theurapeutics, Inc., priority 1998, dated 2004).
Where two headings read alike, the source gives them in different places. Some of these results come from one statement about several compounds together.

Sequences of proteins named here, by UniProt entry; tags and fusion partners are left off. A change or cut given only in a name is not applied to a line headed by its entry.
UniProt P33672: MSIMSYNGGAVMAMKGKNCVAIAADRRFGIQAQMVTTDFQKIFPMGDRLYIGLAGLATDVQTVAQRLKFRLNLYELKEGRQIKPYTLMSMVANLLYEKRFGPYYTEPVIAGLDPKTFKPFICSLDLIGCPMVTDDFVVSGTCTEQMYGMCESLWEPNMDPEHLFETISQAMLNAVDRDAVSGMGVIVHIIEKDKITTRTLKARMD
UniProt Q2TBP0: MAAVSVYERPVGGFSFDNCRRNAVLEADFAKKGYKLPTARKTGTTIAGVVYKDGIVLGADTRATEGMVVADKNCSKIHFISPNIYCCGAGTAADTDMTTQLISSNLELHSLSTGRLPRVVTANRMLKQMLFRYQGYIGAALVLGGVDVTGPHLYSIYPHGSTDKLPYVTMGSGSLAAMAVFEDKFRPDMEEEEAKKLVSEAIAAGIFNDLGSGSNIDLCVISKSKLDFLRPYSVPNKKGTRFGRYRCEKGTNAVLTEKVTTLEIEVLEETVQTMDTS
UniProt Q3MHN0: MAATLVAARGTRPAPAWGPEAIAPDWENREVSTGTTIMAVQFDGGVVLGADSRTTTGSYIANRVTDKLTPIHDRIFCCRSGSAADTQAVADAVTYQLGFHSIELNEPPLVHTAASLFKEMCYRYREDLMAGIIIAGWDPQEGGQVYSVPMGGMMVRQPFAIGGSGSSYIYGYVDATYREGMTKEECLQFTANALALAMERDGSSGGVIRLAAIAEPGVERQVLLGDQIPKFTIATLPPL

Experiments:
[1] = molecular target: T1, tryptic activity of 20S proteasome (Bos taurus, UniProt P33672+Q2TBP0); test: 20S proteasome tryptic activity inhibition assay (CBZ-D-Ala-Leu-Arg-AMC cleavage); assay type: biochemical, bovine; conditions: 15 minutes at 37° C.; for IC50: read-out: tryptic activity inhibition, active as inhibitors at
T1 construct: was purified to homogeneity from bovine brain according to published methods; from tissue; host or cells: bovine brain

[2] = molecular target: T2, peptidylglutamyl activity of 20S proteasome (Bos taurus, UniProt Q2TBP0+Q3MHN0); test: 20S proteasome peptidylglutamyl activity inhibition assay (CBZ-D-Ala-Leu-Glu-AMC cleavage); assay type: biochemical; conditions: Example 6: 2 μg 20S proteasome from bovine brain, substrate CBZ D-Ala-Leu-Glu-AMC, 15 minutes at 37° C.; for IC50: read-out: peptidylglutamyl activity inhibition, active at
T2 construct: was purified to homogeneity from bovine brain according to published methods; from tissue; host or cells: bovine brain

[3] = Example 4: 2 μg 20S proteasome from bovine brain, substrate CBZ-D-Ala-Leu-Arg-AMC
[4] = Example 5: 20 μg 20S proteasome from bovine brain, substrate CBZ D-Ala-Leu-Arg-AMC

Compound	tryptic activity inhibition, active as inhibitors at [1, 3] [µg/mL]	tryptic activity inhibition, active as inhibitors at [1, 4] [µg·mL]	peptidylglutamyl activity inhibition, active at [2] [µg/mL]	peptidylglutamyl activity inhibition, active at ([2]; listed as Compound 190) [µg/mL]	IC50 [1, 3] [µM]	IC50 [1, 4] [µM]	IC50 [2] [µM]
O=C(O)CNC(=O)CNC(=O)CNC(=O)C(=O)Cc1c[nH]c2ccccc12 [Compound 183]	> 10	> 10	> 10	–	–	–	–
CC(C)CC(NC(=O)CNC(=O)C(=O)Cc1c[nH]c2ccccc12)C(=O)NCC(=O)O (stereo not drawn) [Compound 184]	> 10	> 10	> 10	–	–	–	–
CC(C)CC(NC(=O)C(Cc1ccc(-c2ccccc2)cc1)NC(=O)C(=O)Cc1c[nH]c2ccccc12)C(=O)NC(CC(N)=O)C(=O)O (stereo not drawn) [Compound 185]	> 10	> 10	> 10	–	–	–	–
CC(C)CC(NC(=O)C(Cc1ccc(-c2ccccc2)cc1)NC(=O)C(=O)Cc1c[nH]c2ccccc12)C(=O)NC(CCC(N)=O)C(=O)O (stereo not drawn) [Compound 186]	> 10	> 10	> 10	–	–	–	–
CC(C)CC(NC(=O)C(Cc1ccc(-c2ccccc2)cc1)NC(=O)C(=O)Cc1c[nH]c2ccccc12)C(=O)NC(Cc1ccc(-c2ccccc2)cc1)C(=O)O (stereo not drawn) [Compound 187]	> 10	> 10	> 10	–	–	–	–
CC(C)CC(NC(=O)C(Cc1ccc(-c2ccccc2)cc1)NC(=O)C(=O)Cc1c[nH]c2ccccc12)C(=O)NCCC(=O)O (stereo not drawn) [Compound 188]	> 10	> 10	> 10	–	–	–	–
CC(C)CC(NC(=O)C(Cc1ccc(-c2ccccc2)cc1)NC(=O)C(=O)Cc1c[nH]c2ccccc12)C(=O)NC(Cc1c[nH]cn1)C(=O)O (stereo not drawn) [Compound 190]	> 10	> 10	–	> 10	–	–	–
CC(C)CC(NC(=O)C(Cc1ccc(-c2ccccc2)cc1)NC(=O)C(=O)Cc1c[nH]c2ccccc12)C(=O)NC(CCCNC(=N)N)C(=O)O (stereo not drawn) [Compound 191]	–	–	–	–	> 14.4	> 14.4	> 14.4
CC(C)CC(NC(=O)C(Cc1ccc(-c2ccccc2)cc1)NC(=O)C(=O)Cc1c[nH]c2ccccc12)C(=O)NC(Cc1cccnc1)C(=O)O (stereo not drawn) [Compound 192]	> 10	> 10	> 10	–	–	–	–
CC(C)CC(NC(=O)C(Cc1ccc(-c2ccccc2)cc1)NC(=O)C(=O)Cc1c[nH]c2ccccc12)C(=O)NC(CCCCN)C(=O)O (stereo not drawn) [Compound 193]	> 10	> 10	> 10	–	–	–	–
CC(C)CC(NC(=O)C(Cc1ccc(-c2ccccc2)cc1)NC(=O)C(=O)Cc1c[nH]c2ccccc12)C(=O)NC(C(=O)O)c1ccccc1 (stereo not drawn) [Compound 194]	> 10	> 10	> 10	–	–	–	–
CC(C)CC(NC(=O)C(Cc1ccc(-c2ccccc2)cc1)NC(=O)C(=O)Cc1c[nH]c2ccccc12)C(=O)NC(CC(=O)O)C(=O)O (stereo not drawn) [Compound 195]	> 10	> 10	> 10	–	–	–	–
CC(C)CC(NC(=O)C(Cc1ccc(-c2ccccc2)cc1)NC(=O)C(=O)Cc1c[nH]c2ccccc12)C(=O)NC(Cc1c[nH]cn1)C(=O)O (stereo not drawn) [Compound 196]	> 10	> 10	> 10	–	–	–	–
CC(C)CC(NC(=O)C(Cc1ccc(-c2ccccc2)cc1)NC(=O)C(=O)Cc1c[nH]c2ccccc12)C(=O)NC(CCCNC(=N)N)C(=O)O (stereo not drawn) [Compound 197]	> 10	> 10	> 10	–	–	–	–
CC(C)CC(NC(=O)C(Cc1ccc(-c2ccccc2)cc1)NC(=O)C(=O)Cc1c[nH]c2ccccc12)C(=O)NC(Cc1cscn1)C(=O)O (stereo not drawn) [Compound 198]	> 10	> 10	> 10	–	–	–	–
CCCC(NC(=O)C(=O)Cc1c[nH]c2ccccc12)C(=O)NC(CC(C)C)C(=O)NC(C(=O)O)C(C)C (stereo not drawn) [Compound 199]	> 10	> 10	> 10	–	–	–	–
CC(C)C[C@@H](NC(=O)[C@H](CC(=O)O)NC(=O)C(=O)Cc1c[nH]c2ccccc12)C(=O)N[C@H](C(=O)O)C(C)C [Compound 200]	–	–	–	–	> 18.8	> 18.8	> 18.8
CC(C)C(NC(=O)C(NC(=O)C(Cc1ccc(O)cc1)NC(=O)C(=O)Cc1c[nH]c2ccccc12)C(C)C)C(=O)O (stereo not drawn) [Compound 202]	> 10	> 10	> 10	–	–	–	–
CC(C)C(NC(=O)C(NC(=O)C(NC(=O)C(=O)Cc1c[nH]c2ccccc12)C(C)C)C(C)C)C(=O)O (stereo not drawn) [Compound 203]	> 10	> 10	> 10	–	–	–	–
CC(C)CC(NC(=O)C(Cc1ccc2ccccc2c1)NC(=O)C(=O)Cc1c[nH]c2ccccc12)C(=O)NC(Cc1c[nH]cn1)C(=O)O (stereo not drawn) [Compound 204]	> 10	> 10	> 10	–	–	–	–
CC(C)CC(NC(=O)C(Cc1ccc2ccccc2c1)NC(=O)C(=O)Cc1c[nH]c2ccccc12)C(=O)NC(CCCNC(=N)N)C(=O)O (stereo not drawn) [Compound 205]	> 10	> 10	> 10	–	–	–	–
CC(C)CC(NC(=O)C(Cc1ccc2ccccc2c1)NC(=O)C(=O)Cc1c[nH]c2ccccc12)C(=O)NC(Cc1cccnc1)C(=O)O (stereo not drawn) [Compound 206]	> 10	> 10	> 10	–	–	–	–
